According to patent US8148095B2, “Methods for predicting psychotropic drugs which elicit weight gain” (The Johns Hopkins University, priority 2006, dated 2012):

System: α2-AMPK
Details: read-out: EC50 for AMPK activation; hypothalamic slices, 30 min, different concentrations

Structure (SMILES): CN1CCN(C2=Nc3cc(Cl)ccc3Nc3ccccc32)CC1 [Clozapine]
- EC50: ~10 nM
